Data taken from paper PMC11434016.
No constants are given. Whether binding was seen depends on the method and setting. In cells and extracts the contact can be indirect. Some results given as binding are weak or reduced against the parent protein; the word gives no strength. For some of these results: Tags and fused reporters may be left off the sequences shown.

Protein sequences, listed by entry. Tags and fused reporters are not part of them.
UniProt P16989: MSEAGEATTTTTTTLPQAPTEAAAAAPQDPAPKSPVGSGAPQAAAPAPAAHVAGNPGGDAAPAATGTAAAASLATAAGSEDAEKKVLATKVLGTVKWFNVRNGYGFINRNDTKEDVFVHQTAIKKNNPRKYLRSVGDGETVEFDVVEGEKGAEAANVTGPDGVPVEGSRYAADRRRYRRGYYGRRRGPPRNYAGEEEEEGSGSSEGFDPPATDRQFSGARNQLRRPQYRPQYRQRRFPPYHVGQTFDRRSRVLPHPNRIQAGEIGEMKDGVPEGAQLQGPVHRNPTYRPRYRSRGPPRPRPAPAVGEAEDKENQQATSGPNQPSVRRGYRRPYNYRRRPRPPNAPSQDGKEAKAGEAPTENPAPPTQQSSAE
UniProt P41091: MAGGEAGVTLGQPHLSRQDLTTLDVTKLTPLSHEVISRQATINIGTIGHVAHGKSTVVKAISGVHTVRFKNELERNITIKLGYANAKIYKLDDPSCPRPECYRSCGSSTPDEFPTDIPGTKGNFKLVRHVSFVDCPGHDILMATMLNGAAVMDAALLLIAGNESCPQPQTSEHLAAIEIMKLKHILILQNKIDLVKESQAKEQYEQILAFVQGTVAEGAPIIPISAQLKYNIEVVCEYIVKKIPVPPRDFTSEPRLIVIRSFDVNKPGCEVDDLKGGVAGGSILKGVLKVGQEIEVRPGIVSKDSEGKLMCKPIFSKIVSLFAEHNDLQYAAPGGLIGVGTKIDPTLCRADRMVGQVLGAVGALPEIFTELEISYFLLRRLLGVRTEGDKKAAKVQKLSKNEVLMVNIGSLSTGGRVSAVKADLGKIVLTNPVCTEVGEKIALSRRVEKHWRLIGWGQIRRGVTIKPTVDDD

Experiments:
[1] = target: T1, FLAG-YTHDF2 (YTH domain family protein 2) (UniProt Q9Y5A9); assay: proximity ligation; PC-3 cells transfected with FLAG-YTHDF2, HA-YBX3 and MYC-EIF2S3, 48 h; two primary antibodies of different species, Duolink PLA probes, confocal microscopy; also after PROPER knockdown (interactions markedly weakened)
T1 sequence: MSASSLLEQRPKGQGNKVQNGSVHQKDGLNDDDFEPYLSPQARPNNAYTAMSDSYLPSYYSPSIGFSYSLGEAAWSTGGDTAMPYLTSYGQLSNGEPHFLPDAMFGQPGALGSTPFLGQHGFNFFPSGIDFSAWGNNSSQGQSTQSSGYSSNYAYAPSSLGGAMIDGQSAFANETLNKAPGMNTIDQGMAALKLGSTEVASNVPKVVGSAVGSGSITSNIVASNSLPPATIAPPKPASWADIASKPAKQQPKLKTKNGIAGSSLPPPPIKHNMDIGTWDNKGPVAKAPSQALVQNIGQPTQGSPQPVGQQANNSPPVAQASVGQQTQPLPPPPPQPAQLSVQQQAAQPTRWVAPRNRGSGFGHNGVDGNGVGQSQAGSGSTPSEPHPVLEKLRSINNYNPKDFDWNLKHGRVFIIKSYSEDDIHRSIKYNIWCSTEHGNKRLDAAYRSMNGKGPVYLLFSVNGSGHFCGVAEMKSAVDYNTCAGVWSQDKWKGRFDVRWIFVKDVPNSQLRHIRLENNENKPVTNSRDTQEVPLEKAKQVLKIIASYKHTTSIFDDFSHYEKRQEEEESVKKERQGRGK

HA-YBX3 [2] = target: HA-YBX3 (UniProt P16989); assay: as above
[3] = target: T1, FLAG-YTHDF2 (YTH domain family protein 2); assay: co-IP; Myc-EIF2S3 with Flag-YTHDF2 or HA-YBX3 expressed in PC-3 cells; IP lysis buffer (50 mM Tris-HCl pH 7.4, 1 mM EDTA, 50 mM NaCl, 1% Triton X-100), antibody overnight at 4 °C, Protein A/G beads; also in PROPER knockout cells (interaction decreased) and PROPER knockout cells with ectopic PROPER (rescued) or PROPERmut (not rescued)
HA-YBX3 [4] = target: HA-YBX3 (UniProt P16989); assay: as above

binding [1]: binds
binding (HA-YBX3 [2]): binds
binding [3]: binds
binding (HA-YBX3 [4]): binds
Substance: Myc-EIF2S3 (from UniProt P41091 1-472)
